Laboratory results: the supplement of paper PMC10849652
Some of the results follow.

By UniProt entry, the sequences of proteins in these tests, tags left out. Where a name states a change or a piece, a line headed by the entry shows the natural chain unless it says otherwise.
UniProt Q14684: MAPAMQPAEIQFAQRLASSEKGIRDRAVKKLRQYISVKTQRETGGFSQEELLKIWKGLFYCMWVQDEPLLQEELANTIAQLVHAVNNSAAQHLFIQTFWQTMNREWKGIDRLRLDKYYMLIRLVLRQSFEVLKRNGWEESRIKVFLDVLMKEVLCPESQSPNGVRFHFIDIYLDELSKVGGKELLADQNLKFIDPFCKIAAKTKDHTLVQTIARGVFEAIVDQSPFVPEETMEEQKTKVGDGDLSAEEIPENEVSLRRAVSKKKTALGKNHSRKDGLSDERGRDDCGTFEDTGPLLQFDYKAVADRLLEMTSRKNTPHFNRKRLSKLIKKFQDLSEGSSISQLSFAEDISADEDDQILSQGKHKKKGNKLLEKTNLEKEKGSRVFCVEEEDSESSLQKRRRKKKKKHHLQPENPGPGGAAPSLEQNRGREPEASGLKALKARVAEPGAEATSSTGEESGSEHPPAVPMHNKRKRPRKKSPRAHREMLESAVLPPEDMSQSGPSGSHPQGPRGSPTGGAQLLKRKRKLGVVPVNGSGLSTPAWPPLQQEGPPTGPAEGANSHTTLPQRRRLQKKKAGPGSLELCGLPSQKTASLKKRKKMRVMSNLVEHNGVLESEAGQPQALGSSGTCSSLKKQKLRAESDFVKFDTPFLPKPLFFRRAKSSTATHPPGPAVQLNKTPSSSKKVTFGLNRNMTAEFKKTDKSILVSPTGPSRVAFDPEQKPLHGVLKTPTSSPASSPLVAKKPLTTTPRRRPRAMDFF
UniProt Q8N9R8: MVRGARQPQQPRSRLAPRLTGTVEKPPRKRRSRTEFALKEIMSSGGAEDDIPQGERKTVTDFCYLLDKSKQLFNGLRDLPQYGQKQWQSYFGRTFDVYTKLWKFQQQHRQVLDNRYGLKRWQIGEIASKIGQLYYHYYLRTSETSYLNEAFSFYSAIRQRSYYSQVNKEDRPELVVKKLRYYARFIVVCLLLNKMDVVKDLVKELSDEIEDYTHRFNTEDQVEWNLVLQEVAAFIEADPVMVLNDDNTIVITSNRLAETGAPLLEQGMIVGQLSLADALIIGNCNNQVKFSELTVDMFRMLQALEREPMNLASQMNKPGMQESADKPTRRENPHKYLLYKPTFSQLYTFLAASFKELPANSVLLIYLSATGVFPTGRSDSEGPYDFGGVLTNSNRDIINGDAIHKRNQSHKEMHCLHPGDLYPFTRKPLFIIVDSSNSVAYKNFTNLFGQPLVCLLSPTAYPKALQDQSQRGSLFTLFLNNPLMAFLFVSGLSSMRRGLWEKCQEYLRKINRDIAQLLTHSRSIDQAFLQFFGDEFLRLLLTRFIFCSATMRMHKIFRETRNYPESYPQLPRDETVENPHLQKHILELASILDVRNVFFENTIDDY
UniProt P23297: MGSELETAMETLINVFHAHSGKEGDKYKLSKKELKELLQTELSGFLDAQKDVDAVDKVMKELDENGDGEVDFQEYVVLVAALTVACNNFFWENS
UniProt O75556: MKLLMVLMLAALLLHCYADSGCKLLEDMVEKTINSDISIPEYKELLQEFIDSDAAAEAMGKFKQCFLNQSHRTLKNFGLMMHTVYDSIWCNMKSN
UniProt Q5VUM1: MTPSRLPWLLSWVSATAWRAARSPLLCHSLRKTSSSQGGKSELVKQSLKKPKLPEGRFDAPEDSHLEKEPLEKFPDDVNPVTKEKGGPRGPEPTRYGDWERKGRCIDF
UniProt Q99470: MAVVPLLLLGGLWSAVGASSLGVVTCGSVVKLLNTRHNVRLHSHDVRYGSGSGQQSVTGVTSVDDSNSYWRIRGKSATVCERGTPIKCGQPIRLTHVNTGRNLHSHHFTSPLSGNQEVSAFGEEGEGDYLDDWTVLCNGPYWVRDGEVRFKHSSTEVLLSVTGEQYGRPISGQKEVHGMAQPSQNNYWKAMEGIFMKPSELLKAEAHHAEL
UniProt Q14160: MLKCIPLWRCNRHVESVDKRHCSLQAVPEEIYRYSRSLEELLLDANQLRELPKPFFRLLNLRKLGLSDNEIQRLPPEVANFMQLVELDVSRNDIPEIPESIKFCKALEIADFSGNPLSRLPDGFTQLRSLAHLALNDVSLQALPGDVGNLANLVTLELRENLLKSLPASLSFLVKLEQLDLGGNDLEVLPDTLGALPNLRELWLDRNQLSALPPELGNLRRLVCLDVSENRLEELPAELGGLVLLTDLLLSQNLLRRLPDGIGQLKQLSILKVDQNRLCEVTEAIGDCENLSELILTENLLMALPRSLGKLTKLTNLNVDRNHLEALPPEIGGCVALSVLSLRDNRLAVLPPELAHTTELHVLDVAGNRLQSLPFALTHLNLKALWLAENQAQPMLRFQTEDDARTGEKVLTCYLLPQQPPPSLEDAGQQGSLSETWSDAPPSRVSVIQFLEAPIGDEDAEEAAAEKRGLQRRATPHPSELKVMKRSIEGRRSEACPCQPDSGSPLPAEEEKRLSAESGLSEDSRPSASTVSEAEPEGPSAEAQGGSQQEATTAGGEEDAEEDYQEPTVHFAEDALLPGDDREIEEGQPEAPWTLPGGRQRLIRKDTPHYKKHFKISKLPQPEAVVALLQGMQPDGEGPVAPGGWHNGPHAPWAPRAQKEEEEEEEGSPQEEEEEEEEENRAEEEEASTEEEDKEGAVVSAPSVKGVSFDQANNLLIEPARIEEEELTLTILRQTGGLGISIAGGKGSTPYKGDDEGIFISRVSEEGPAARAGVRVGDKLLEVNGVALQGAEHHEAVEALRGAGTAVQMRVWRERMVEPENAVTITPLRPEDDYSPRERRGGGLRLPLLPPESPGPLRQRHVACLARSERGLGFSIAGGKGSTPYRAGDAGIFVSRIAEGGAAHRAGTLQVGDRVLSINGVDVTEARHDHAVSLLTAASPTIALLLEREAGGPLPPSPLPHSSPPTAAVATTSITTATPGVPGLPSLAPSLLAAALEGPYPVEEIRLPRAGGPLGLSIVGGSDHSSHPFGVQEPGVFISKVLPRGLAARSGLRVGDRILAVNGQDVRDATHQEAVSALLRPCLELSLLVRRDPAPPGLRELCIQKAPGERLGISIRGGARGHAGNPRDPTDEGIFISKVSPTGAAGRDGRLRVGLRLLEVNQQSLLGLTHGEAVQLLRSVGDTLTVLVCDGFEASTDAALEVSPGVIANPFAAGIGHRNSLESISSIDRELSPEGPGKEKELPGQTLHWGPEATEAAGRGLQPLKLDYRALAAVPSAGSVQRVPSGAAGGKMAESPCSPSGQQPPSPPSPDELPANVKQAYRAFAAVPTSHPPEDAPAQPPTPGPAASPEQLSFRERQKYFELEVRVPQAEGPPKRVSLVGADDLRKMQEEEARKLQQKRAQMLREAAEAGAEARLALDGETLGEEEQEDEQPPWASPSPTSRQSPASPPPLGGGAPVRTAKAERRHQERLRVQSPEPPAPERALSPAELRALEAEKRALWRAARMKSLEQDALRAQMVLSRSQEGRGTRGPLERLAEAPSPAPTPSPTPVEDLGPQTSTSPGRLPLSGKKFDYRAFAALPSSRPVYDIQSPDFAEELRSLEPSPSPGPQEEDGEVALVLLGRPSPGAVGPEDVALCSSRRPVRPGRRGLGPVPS
UniProt Q9Y3A4: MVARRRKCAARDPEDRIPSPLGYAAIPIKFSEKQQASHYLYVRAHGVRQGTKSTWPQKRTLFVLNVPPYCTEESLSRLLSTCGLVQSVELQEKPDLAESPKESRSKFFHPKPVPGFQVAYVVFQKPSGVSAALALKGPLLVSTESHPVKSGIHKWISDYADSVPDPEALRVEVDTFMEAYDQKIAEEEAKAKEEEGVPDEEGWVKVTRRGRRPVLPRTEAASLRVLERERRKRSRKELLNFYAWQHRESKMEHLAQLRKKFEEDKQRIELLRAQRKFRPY
UniProt Q6UWP8: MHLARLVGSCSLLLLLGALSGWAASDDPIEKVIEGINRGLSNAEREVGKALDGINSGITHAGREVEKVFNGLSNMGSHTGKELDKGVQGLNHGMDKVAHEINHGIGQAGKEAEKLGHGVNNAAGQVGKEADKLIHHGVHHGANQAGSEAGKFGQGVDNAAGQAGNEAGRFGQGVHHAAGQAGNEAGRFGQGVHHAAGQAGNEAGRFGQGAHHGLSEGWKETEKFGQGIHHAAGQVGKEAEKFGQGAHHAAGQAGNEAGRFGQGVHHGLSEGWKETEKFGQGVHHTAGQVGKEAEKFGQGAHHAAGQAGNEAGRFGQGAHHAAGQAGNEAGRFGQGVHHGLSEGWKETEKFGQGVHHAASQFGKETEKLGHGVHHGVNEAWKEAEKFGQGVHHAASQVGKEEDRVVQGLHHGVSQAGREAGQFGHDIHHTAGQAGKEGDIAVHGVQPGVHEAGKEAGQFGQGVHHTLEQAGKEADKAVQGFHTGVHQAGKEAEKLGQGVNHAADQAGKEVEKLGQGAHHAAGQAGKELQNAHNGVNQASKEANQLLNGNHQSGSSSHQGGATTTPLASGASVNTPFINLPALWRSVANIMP
UniProt Q9NQC3: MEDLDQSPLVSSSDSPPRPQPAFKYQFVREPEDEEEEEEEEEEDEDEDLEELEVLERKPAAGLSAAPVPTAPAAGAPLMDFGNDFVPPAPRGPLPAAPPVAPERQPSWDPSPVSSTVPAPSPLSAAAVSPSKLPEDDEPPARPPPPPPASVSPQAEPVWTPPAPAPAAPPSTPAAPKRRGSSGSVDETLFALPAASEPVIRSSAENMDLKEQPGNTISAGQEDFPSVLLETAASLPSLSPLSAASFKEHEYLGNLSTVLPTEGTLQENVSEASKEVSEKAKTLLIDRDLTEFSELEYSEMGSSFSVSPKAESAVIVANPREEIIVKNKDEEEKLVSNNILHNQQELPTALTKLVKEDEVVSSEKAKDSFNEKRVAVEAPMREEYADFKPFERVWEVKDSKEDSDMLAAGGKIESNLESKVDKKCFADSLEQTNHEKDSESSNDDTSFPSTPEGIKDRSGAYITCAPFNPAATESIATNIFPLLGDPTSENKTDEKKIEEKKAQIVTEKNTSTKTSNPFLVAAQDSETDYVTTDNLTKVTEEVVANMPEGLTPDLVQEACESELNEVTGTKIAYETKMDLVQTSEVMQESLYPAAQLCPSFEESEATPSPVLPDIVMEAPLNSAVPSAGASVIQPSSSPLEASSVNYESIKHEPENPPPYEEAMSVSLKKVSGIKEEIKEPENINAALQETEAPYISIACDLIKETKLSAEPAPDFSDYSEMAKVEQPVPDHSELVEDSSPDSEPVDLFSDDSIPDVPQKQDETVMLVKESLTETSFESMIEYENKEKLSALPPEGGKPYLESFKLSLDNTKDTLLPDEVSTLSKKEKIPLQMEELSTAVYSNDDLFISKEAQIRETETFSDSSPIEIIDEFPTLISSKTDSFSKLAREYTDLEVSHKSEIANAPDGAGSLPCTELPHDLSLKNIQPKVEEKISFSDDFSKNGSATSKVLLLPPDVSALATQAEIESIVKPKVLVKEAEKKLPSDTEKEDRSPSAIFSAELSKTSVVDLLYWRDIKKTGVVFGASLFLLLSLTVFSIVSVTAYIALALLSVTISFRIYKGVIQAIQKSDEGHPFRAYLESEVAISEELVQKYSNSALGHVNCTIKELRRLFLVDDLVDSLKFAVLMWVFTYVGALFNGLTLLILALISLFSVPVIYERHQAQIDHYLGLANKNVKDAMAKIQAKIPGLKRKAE
UniProt A6ZKI3: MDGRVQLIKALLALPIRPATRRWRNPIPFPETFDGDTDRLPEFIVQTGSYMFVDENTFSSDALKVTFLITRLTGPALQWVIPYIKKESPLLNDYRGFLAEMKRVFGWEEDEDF
UniProt Q9UPW6: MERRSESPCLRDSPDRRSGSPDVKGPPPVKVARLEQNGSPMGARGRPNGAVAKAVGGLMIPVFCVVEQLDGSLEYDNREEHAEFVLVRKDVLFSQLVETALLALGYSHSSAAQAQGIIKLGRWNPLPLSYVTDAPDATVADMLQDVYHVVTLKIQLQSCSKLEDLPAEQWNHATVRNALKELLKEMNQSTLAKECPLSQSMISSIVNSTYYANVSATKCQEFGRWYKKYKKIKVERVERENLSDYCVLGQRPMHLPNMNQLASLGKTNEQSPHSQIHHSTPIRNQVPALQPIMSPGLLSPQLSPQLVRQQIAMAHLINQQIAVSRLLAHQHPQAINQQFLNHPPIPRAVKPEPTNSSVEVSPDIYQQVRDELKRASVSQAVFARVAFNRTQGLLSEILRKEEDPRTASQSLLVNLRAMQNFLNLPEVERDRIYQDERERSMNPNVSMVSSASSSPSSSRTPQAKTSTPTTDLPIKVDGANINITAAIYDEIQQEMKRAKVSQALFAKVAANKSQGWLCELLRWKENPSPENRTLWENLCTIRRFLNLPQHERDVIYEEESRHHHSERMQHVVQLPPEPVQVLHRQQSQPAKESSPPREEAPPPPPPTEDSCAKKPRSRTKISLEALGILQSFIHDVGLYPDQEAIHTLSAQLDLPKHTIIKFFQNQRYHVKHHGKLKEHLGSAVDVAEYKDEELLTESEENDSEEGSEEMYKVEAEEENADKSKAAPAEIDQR
UniProt P26447: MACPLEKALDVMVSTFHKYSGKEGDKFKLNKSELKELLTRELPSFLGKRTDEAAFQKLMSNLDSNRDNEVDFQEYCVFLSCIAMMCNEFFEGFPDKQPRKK

Experiments:
Test in all cases: log2 fold change, soluble protein after heating vs DMSO (PISA); higher = thermal stabilisation; K562 cells, 10 uM, 30 min; active = over 0.2 and 3.5 SD of the protein, either way, in both replicates (recomputed)
[1] = compound: Cc1cccc(CC(=O)N2CCc3c2ccc(-c2cn(C)c4ncnc(N)c24)c3F)n1
Method in brief: (§1)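 Soluble protein was quantified by TMTpro 16plex LC-MS/MS after channel sums were equalised. It was obtained as the supernatant after 21,000xg for 90 min from pooled aliquots of K562 cells (2×10^6 cells/mL, 10 μM compound, 30 min) heated for 3 min across 48°C-58°C and extracted in PBS with 0.5% NP-40 at 4°C. Thermal stability values are relative to control samples and come from duplicates. They are given as log2 fold changes.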

[2] = compound: Cc1nc(Nc2ncc(C(=O)Nc3c(C)cccc3Cl)s2)cc(N2CCN(CCO)CC2)n1 [dasatinib]
Method in brief: as §1

[3] = compound: FC(F)(F)c1ccc(/C=C/c2nc(COc3ccc(CCCCn4ccnn4)cc3)co2)cc1 [mubritinib]
Method in brief: as §1

[4] = compound: Cc1cn(-c2cc(NC(=O)c3ccc(C)c(Nc4nccc(-c5cccnc5)n4)c3)cc(C(F)(F)F)c2)cn1 [nilotinib]
Method in brief: as §1

[5] = compound: Cc1nc(Nc2n[nH]c3c2CN(C(=O)N[C@H](CN(C)C)c2ccccc2)C3(C)C)c2sccc2n1
Method in brief: as §1

[6] = compound: Cc1ncc(-c2ccnc(Nc3ccc(S(C)(=O)=O)cc3)n2)n1C(C)C
Method in brief: as §1

[7] = compound: Cn1cc(-c2ccc3c(c2)CCN3C(=O)Cc2cccc(C(F)(F)F)c2)c2c(N)ncnc21
Method in brief: as §1

[8] = compound: Cc1ccc(NC(=O)c2ccc(CN3CC[C@H](N(C)C)C3)c(C(F)(F)F)c2)cc1Nc1nccc(-c2cncnc2)n1 [bafetinib]
Method in brief: as §1

[9] = compound: Cn1cc(-c2ccc3nnc(C(F)(F)c4ccc5ncccc5c4)n3n2)cn1
Method in brief: as §1

[10] = compound: Cn1cncc1[C@@](N)(c1ccc(Cl)cc1)c1ccc2c(c1)c(-c1cccc(Cl)c1)cc(=O)n2C [tipifarnib]
Method in brief: as §1

Measured: log2 fold change

RRP1B (UniProt Q14684)
inactive: [1] -0.043 | [2] 0.023 | [3] 0.033

SDC3 (UniProt O75056)
inactive: [1] 0.419 | [4] -0.004 | [5] 0.07 | [2] 0.073 | [6] -0.036 | [7] -0.019

RTN3 isoform 5 (UniProt O95197)
inactive: [8] 0.048 | [4] -0.024 | [5] 0.07 | [2] -0.292 | [6] -0.084 | [7] 0.109 | [9] -0.04 | [10] -0.353 | [3] -0.021

SCN4A (UniProt P35499)
inactive: [2] 0.01 | [3] 0.064

SAMD4A (UniProt Q9UPU9)
inactive: [2] 0.034

SAP130 isoform 3 (UniProt Q9H0E3)
inactive: [1] -0.12 | [7] 0.086 | [9] 0.001

SBF2 (UniProt Q86WG5)
inactive: [1] -0.024 | [2] 0.033 | [9] -0.013

SCAI isoform 2 (UniProt Q8N9R8)
inactive: [2] 0.142 | [7] -0.038 | [9] -0.001

SCOC (UniProt Q9UIL1)
inactive: [9] 0.106

RXYLT1 (UniProt Q9Y2B1)
inactive: [4] 0.102 | [5] -0.1 | [6] 0.076 | [10] -0.361

S100A1 (UniProt P23297)
inactive: [8] 0.012 | [4] -0.063 | [5] 0.052 | [6] 0.033 | [9] 0.047

SCGB2A1 (UniProt O75556)
inactive: [8] 1.22 | [4] -0.106 | [5] 0.019 | [6] 0.745 | [3] 0.041

SDHAF4 (UniProt Q5VUM1)
inactive: [8] -0.078 | [4] -0.043 | [5] -0.003 | [2] 0.034 | [6] 0.056 | [7] 0.077 | [10] -0.041 | [3] 0.03

SAP30 (UniProt O75446)
inactive: [1] 0.076 | [4] 0.083 | [5] 0.01 | [2] -0.008 | [6] 0.006 | [7] -0.073 | [10] 0.068 | [3] -0.118

SDF2 (UniProt Q99470)
inactive: [8] 0.096 | [1] -0.025 | [10] 0.243

SCAMP2 (UniProt H3BUB6)
inactive: [8] -0.226 | [4] -0.056 | [5] 0.03 | [2] 0 | [6] -0.069 | [7] 0.062 | [9] 0.095 | [10] 0.188 | [3] 0.023

S100A16 (UniProt Q96FQ6)
inactive: [8] 0.11 | [4] -0.034 | [5] -0.148 | [2] -0.116 | [6] 0.022 | [3] -0.115

SCAMP3 isoform 2 (UniProt O14828)
inactive: [8] 0.027 | [4] 0.048 | [5] 0.027 | [6] -0.01 | [9] 0.003 | [10] -0.001 | [3] 0.015

SCGB1D2 (UniProt O95969)
inactive: [8] 0.639 | [4] -0.43 | [5] 0.337 | [2] 0.287 | [6] -0.113 | [7] 0.582 | [9] 0.326 | [10] -0.348 | [3] -0.474

S100A2 (UniProt P29034)
inactive: [8] 0.694 | [4] -0.16 | [5] 0.249 | [2] -0.119 | [6] -0.087 | [7] 0.094 | [10] -0.072 | [3] 0.1

SCRIB isoform 3 (UniProt Q14160)
inactive: [1] -0.009 | [2] -0.022 | [7] -0.042 | [9] -0.23 | [3] -0.058

RSL24D1 (UniProt Q9UHA3)
inactive: [8] 0.176 | [4] -0.029 | [5] 0.046 | [6] 0.044 | [9] -0.345 | [3] -0.085

2 neighbouring entries out of the list so far:
S100A2 (UniProt P29034)
inactive: [8] 0.694 | [4] -0.16 | [5] 0.249 | [2] -0.119 | [6] -0.087 | [7] 0.094 | [10] -0.072 | [3] 0.1

SCRIB isoform 3 (UniProt Q14160)
inactive: [1] -0.009 | [2] -0.022 | [7] -0.042 | [9] -0.23 | [3] -0.058

(next part)

RTN2 (UniProt O75298)
inactive: [8] -0.145 | [4] 0.031 | [5] 0.039 | [2] 0.055 | [6] 0.004 | [7] -0.027 | [9] 0.161 | [10] -0.056 | [3] 0.084

RRP7A (UniProt Q9Y3A4)
inactive: [8] -0.022 | [4] 0.109 | [5] -0.046 | [6] -0.261 | [7] -0.055 | [9] -0.12 | [10] 0.092 | [3] -0.334

S100A14 (UniProt Q9HCY8)
inactive: [8] -0.116 | [4] -0.02 | [5] 0.113 | [2] -0.441 | [6] 0.318 | [9] 0.373 | [3] -0.098

RUBCN (UniProt Q92622)
inactive: [9] -0.093

SBSN (UniProt Q6UWP8)
inactive: [4] 0.031 | [5] -0.018 | [6] 0.113 | [3] -0.495

SDCCAG8 (UniProt Q86SQ7)
inactive: [1] 0.053 | [2] 0.068 | [10] 0.052

RTN4 isoform 5 (UniProt Q9NQC3)
inactive: [1] -0.014 | [4] 0.227 | [5] 0.089 | [2] -0.256 | [6] 0.061 | [7] 0.002 | [9] 0.251 | [10] 0.092

SEC14L1 isoform 2 (UniProt Q92503)
inactive: [1] -0.127 | [2] -0.018 | [7] -0.076

RTL10 (UniProt Q7L3V2)
inactive: [1] -0.003 | [2] -0.139 | [7] 0.056 | [9] -0.169 | [10] -0.114 | [3] -0.607

RXRG (UniProt P48443)
inactive: [1] 0.179 | [9] -0.005

RWDD2B (UniProt P57060)
inactive: [1] 0.012 | [2] 0.096 | [9] -0.17 | [10] 0.087

RTL8C (UniProt A6ZKI3)
inactive: [1] 0.125 | [2] -0.166 | [9] -0.144 | [10] 0.109

SATB2 (UniProt Q9UPW6)
inactive: [1] 0.05

RUFY3 isoform 3 (UniProt Q7L099)
inactive: [1] -0.018 | [4] -0.16 | [5] 0.045 | [2] -0.271 | [6] 0.052 | [7] 0.024 | [9] 0.134 | [10] -0.116 | [3] 0.043

SAE1 (UniProt M0R286)
inactive: [8] 0.124 | [7] -0.2 | [9] 0.139 | [10] 0.383 | [3] 0.221

S100A4 (UniProt P26447)
inactive: [4] 0.08 | [5] -0.023 | [6] 0.073 | [9] -0.057 | [10] 0.013

SAFB2 (UniProt K7EQU4)
inactive: [8] -0.053 | [4] 0.155 | [5] 0.162 | [6] -0.113

SAYSD1 (UniProt Q9NPB0)
inactive: [8] 0.15 | [7] 0.14 | [10] -0.007 | [3] -0.033
